No constants are given. Whether binding was seen depends on the method and setting. In cells and extracts the contact can be indirect. Some entries that bind do so weakly or less than the wild type.
B1: carbonic anhydrase IV (enzyme, UniProt P48284 18-281)
chain: EDSHWCYEIQAKEPNSHCSGPEQWTGDCKKNQQSPINIVTSKTKLNPSLTPFTFVGYDQKKKWEVKNNQHSVEMSLGEDIYIFGGDLPTQYKAIQLHLHWSEESNKGSEHSIDGKHFAMEMHVVHKKMTTGDKVQDSDSKDKIAVLAFMVEVGNEVNEGFQPLVEALSRLSKPFTNSTVSESCLQDMLPEKKKLSAYFRYQGSLTTPGCDETVIWTVFEEPIKIHKDQFLEFSKKLYYDQEQKLNMKDNVRPLQPLGNRQVFRS
B2: carbonic anhydrase I (enzyme, UniProt B0BNN3 1-261)
chain: MASADWGYDSKNGPDQWSKLYPIANGNNQSPIDIKTSEAKHDSSLKPVSVSYNPATAKEIVNVGHSFHVVFDDSSNQSVLKGGPLADSYRLTQFHFHWGNSNDHGSEHTVDGAKYSGELHLVHWNSAKYSSAAEAISKADGLAIIGVLMKVGPANPNLQKVLDALSSVKTKGKRAPFTNFDPSSLLPSSLDYWTYFGSLTHPPLHESVTWVICKESISLSPEQLAQLRGLLSSAEGEPAVPVLSNHRPPQPLKGRTVRASF

Sequences of proteins named here, by UniProt entry; tags and fusion partners are left off.
UniProt P26431: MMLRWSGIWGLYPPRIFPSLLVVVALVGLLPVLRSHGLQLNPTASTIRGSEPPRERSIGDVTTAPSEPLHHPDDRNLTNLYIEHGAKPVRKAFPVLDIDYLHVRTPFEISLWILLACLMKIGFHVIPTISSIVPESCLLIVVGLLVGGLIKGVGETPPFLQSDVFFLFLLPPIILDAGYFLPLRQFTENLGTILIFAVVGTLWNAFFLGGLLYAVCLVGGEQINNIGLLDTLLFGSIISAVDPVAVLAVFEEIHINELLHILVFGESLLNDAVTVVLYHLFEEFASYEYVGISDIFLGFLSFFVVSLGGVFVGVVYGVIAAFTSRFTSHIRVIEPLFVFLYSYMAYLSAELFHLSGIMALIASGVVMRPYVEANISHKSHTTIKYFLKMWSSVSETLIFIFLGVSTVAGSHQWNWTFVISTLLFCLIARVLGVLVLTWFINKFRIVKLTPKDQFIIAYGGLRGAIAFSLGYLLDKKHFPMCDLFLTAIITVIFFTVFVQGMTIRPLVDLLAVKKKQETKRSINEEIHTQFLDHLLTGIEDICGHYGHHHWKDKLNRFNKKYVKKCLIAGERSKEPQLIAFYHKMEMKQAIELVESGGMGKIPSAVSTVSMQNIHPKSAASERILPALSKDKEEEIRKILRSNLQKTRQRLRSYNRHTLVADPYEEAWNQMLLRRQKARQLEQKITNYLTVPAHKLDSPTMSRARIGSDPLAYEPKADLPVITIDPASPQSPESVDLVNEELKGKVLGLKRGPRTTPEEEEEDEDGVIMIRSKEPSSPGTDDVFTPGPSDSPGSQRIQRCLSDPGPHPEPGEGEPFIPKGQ
UniProt P27139: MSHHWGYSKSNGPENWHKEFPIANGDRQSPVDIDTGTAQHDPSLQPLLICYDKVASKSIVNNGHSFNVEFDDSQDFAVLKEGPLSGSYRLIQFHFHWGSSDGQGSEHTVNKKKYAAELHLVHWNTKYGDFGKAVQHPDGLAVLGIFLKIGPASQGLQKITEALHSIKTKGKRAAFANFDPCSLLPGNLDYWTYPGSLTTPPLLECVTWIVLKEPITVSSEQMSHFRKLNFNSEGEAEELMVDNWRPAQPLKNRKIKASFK

target: Na-H exchanger-1 (rat (endogenous in colon)) (UniProt P26431); test: co-IP; uninflamed (control) rat colon tissue lysates solubilized with triton X-100; NHE-1-specific antibodies 1:100, Protein-G sepharose beads; blots with CA isoform-selective antibodies

binding	Molecule
binds	carbonic anhydrase II (from UniProt P27139 1-260) (enzyme)
no binding	B1
binds	B2

— paper PMC6921068
